The list shows a part of the results.
Compound: CC1Cc2ccccc2N1C(=O)C1CCCN(C1)C(=O)CCl (mixture of isomers) [TRIM25 ligand 11 (diastereomer mixture)]
Experiment: probe-labelled cysteine peptide fold change vs DMSO (competition) (log2 fold change); higher = less target engagement (more negative = stronger competition)
Conditions: 10 µM; THP-1; incubation time: 4 h
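Further: competitive chemoproteomic profiling in live THP-1 cells with an iodoacetamide desthiobiotin (IA-DTB) probe, comparing probe-labelled peptide intensities in compound-treated cells against DMSO-treated controls.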

| Target | probe-labelled cysteine peptide fold change |
| --- | --- |
| CLUH_O75153_588_TFPPDLNFLPVPGEELPEECAR (UniProt O75153) | 0.212 |
| CIT_O14578_105_SLVGCGHFAEVQVVR (UniProt O14578) | -0.109 |
| CKAP5_Q14008_1768_TLLHTLCK (UniProt Q14008) | 0.0246 |
| CIB1_Q99828_134_LVNCLTGEGEDTR (UniProt Q99828) | -0.0273 |
| CLTC_Q00610_1257_EVCFACVDGK (UniProt Q00610) | -0.0168 |
| CHML_P26374_366_NFLQCLGR (UniProt P26374) | -0.0875 |
| CLTC_Q00610_926+934_GQCDLELINVCNENSLFK (UniProt Q00610) | -0.0773 |
| CHAMP1_Q96JM3_16_LECDHCSFR (UniProt Q96JM3) | 0.26 |
| CLASP1_Q7Z460_453_LIPVITSNCTSK (UniProt Q7Z460) | 0.139 |
| CLTCL1_P53675_778_LTDQLPLIIVCDR (UniProt P53675) | 0.341 |
| CIAO1_O76071_19_CWFLAWNPAGTLLASCGGDRR (UniProt O76071) | -0.246 |
| CLUH_O75153_753_DAAAFLLSCQIPGLVK (UniProt O75153) | -0.111 |
| CFAP20_Q9Y6A4_160_VQIHANCR (UniProt Q9Y6A4) | -0.00861 |
| CHD4_Q14839_1594_STAPETAIECTQAPAPASEDEK (UniProt Q14839) | 0.0047 |
| CLPTM1_O96005_308_VSFCPLSLWR (UniProt O96005) | 0.134 |
| CFL1_P23528_139_HELQANCYEEVK (UniProt P23528) | -0.0396 |
| CLASP1_Q7Z460_864_QTEDVAEVLNHCASSNWSER (UniProt Q7Z460) | 0.0946 |
| CHAMP1_Q96JM3_41_GTDYENVQIHMGTIHPEFCDEMDAGGLGK (UniProt Q96JM3) | 0.226 |
| CHD1_O14646_1417_TFSICK (UniProt O14646) | -0.0958 |

Part of the list above, reformatted.
Target | probe-labelled cysteine peptide fold change
CLTC_Q00610_1257_EVCFACVDGK (UniProt Q00610) | -0.0168
CLASP1_Q7Z460_453_LIPVITSNCTSK (UniProt Q7Z460) | 0.139
CHAMP1_Q96JM3_41_GTDYENVQIHMGTIHPEFCDEMDAGGLGK (UniProt Q96JM3) | 0.226

The list continues:

| Target | probe-labelled cysteine peptide fold change |
| --- | --- |
| CHURC1_Q8WUH1_88_SLKEEDGEEIVTYDHLCK (UniProt Q8WUH1) | -0.0858 |
| CHI3L1_P36222_41_EGDGSCFPDALDR (UniProt P36222) | 0.0668 |
| CLPB_Q9H078_267_GCTALHYAVLADDYR (UniProt Q9H078) | 0.333 |
| CFL1_P23528_39_AVLFCLSEDKK (UniProt P23528) | -0.132 |
| CHURC1_Q8WUH1_44+60_GNTCLENGSFLLNFTGCAVCSK (UniProt Q8WUH1) | 0.0773 |
| CHD4_Q14839_1018+1019_CCNHPYLFPVAAMEAPK (UniProt Q14839) | -0.12 |
| CHD8_Q9HCK8_1947_HGVSQTDCNIMQDPDFSFLAAR (UniProt Q9HCK8) | -0.147 |
| CIAPIN1_Q6FI81_285_CASCPYLGMPAFKPGEK (UniProt Q6FI81) | -0.127 |
| CHD1L_Q86WJ1_156_FHVLLTTYEICLK (UniProt Q86WJ1) | 0.033 |
| CHKB_Q9Y259_85_CSLPDHLPSVGEEPREVLLR (UniProt Q9Y259) | -0.301 |
| CIAO1_O76071_308_VFQEDPNSDPQQPTFSLTAHLHQAHSQDVNCVAWNPK (UniProt O76071) | 0.317 |
| CLASP2_O75122_1184_VLCPIIQTADYPINLAAIK (UniProt O75122) | 0.0331 |
| CES1_P23141_285_TTTSAVMVHCLR (UniProt P23141) | 0.0835 |
| CLASP2_O75122_221_LIPLITSNCTSK (UniProt O75122) | 0.0126 |
| CKAP5_Q14008_1019_STPTDLILCVPHLYSCLEDR (UniProt Q14008) | -0.0864 |
| CINP_Q9BW66_92_LCEELQATLDGLTK (UniProt Q9BW66) | 0.245 |
| CHD8_Q9HCK8_1902_EQVLCHPLLEDR (UniProt Q9HCK8) | 0.0843 |
| CIC_Q96RK0_336_APGSSSCGAER (UniProt Q96RK0) | -0.0918 |
| CLP1_Q92989_338_VGAPTIPDSCLPLGMSQEDNQLK (UniProt Q92989) | 0.0732 |
